This note sets out measurements from PubChem BioAssay AID256 (DTP/NCI, 2004).

The list shows only some results of the screen, not a fair sample: it is rich in T/C values a quarter to a half above the control, in often repeated tests (any T/C) and in doses without a T/C. Other doses and runs of a compound stand elsewhere. T/C is the treated group as % of the vehicle group. Some entries give survivors of the animals treated and no T/C: the source files T/C as zero there, which appears to mark a toxic dose or a test without result, not a measured value. Some survivor counts are full or nearly so, which does not show that the dose was tolerated: survival well below the control is almost never listed, so the zero probably covers shortened survival too. Survivors were counted at the toxicity check, usually on the fifth day, unless a day is given; later deaths do not show. Schedules are NCI's codes, read here as Q, the interval in days (D) or hours (H), X, the number of doses. Some doses were run more than once; the values are given in rising order. Where survival is the endpoint, this PubChem deposit counts one and a half times the control or more as active, and values a quarter to a half above the control carry no call in these data; other NCI protocols may use other cut-offs. Some T/C values carry the count of animals alive at the toxicity check (mostly the fifth day); without a count, all were alive then. Marks such as (2×) give the number of equal values in this list.

This assay deals with CD2F1 mice, L1210 leukemia ip, survival T/C. Briefly: NCI In Vivo Anticancer Drug Screen. Data for tumor model L1210 Leukemia (intraperitoneal) in CD2F1 (CDF1) mice. The conditions noted are these: higher T/C = longer survival. The gist of the method:
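In this screen, transplantable tumors were grown in mice given either the compound or its vehicle. Results were expressed as the treated measurement relative to the control measurement.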

The mark [1] stands for this setting: T/C endpoint: mean survival time, dose: 400.0 mg/kg/injection, schedule: Q01DX001 (ip), vehicle: Klucel (hydroxypropylcellulose) (HPC).
[2] abbreviates: T/C endpoint: mean survival time, dose: 100.0 mg/kg/injection, schedule: Q01DX001 (ip), vehicle: saline with Tween-80.
[3] abbreviates: T/C endpoint: mean survival time, dose: 400.0 mg/kg/injection, schedule: Q01DX001 (ip), vehicle: saline with Tween-80.
The mark [4] stands for this setting: T/C endpoint: mean survival time, dose: 400.0 mg/kg/injection, schedule: Q01DX009 (ip), vehicle: saline with Tween-80.
Setting [5] is: T/C endpoint: mean survival time, dose: 200.0 mg/kg/injection, schedule: Q04DX003 (ip), vehicle: saline with Tween-80.
The mark [6] stands for this setting: T/C endpoint: mean survival time, dose: 400.0 mg/kg/injection, schedule: Q04DX003 (ip), vehicle: saline with Tween-80.
The mark [7] stands for this setting: T/C endpoint: mean survival time, dose: 100.0 mg/kg/injection, schedule: Q04DX003 (ip), vehicle: saline with Tween-80.

Consider `CCOC(=O)C(=O)C(C#N)c1ccccc1` (configuration not stated), for which the survivor count is 1 of 3 (T/C endpoint: mean survival time, dose: 200.0 mg/kg/injection, schedule: Q01DX001 (ip), vehicle: Klucel (hydroxypropylcellulose) (HPC)) and 0 of 3 under setting [1].

Take `CN(C)N=Nc1ccc(C(=N)N)cc1`: the T/C runs as follows: (T/C endpoint: mean survival time, dose: 35.0 mg/kg/injection, schedule: Q01DX009 (ip), vehicle: acid diluted with saline) 133 % of control; (T/C endpoint: mean survival time, dose: 52.5 mg/kg/injection, schedule: Q01DX009 (ip), vehicle: acid diluted with saline) 128 % of control.

In the case of `CC1=C(N2CC2)C(=O)C2=C(C1=O)N1CC3C(N3C)C1(O)C2COC(N)=O` (configuration not stated), the T/C reads like this: (T/C endpoint: mean survival time, dose: 2.33 mg/kg/injection, schedule: Q01DX001 (ip), vehicle: carboxymethylcellulose (CMC)) 127 % of control; (T/C endpoint: mean survival time, dose: 3.5 mg/kg/injection, schedule: Q01DX001 (ip), vehicle: carboxymethylcellulose (CMC)) 135 % of control.

In the case of `COC(=O)/C(O)=C/C(N)=O.COC(=O)/C(O)=C/C(N)=O.[Cu]`, the survivor count was 0 of 6 (T/C endpoint: mean survival time, dose: 75.0 mg/kg/injection, schedule: Q01DX001 (ip), vehicle: carboxymethylcellulose (CMC)); 0 of 6 (T/C endpoint: mean survival time, dose: 150.0 mg/kg/injection, schedule: Q01DX001 (ip), vehicle: carboxymethylcellulose (CMC)); 0 of 6 (T/C endpoint: mean survival time, dose: 300.0 mg/kg/injection, schedule: Q01DX001 (ip), vehicle: carboxymethylcellulose (CMC)).

On to `C[C@H]1CP(c2ccccc2)(c2ccccc2)(c2ccccc2)O[C@@]1(C(=O)c1ccccc1)c1ccccc1`, for which the survivor count by setting is: under setting [2], 3 of 6; under setting [3], 0 of 6.

For `C=C(Br)CNC(=O)C(C)(C)C`, the survivor count reads like this: (T/C endpoint: mean survival time, dose: 200.0 mg/kg/injection, schedule: Q01DX009 (ip), vehicle: saline with Tween-80) 3 of 6; under setting [4], 4 of 6.

In the case of `ClCc1c2ccccc2cc2ccccc12`, the survivor count (T/C endpoint: mean survival time, dose: 50.0 mg/kg/injection, schedule: Q04DX002 (ip), vehicle: saline with Tween-80) is 1 of 3 and the survivor count (T/C endpoint: mean survival time, dose: 100.0 mg/kg/injection, schedule: Q04DX002 (ip), vehicle: saline with Tween-80) was 0 of 3.

In the case of `c1ccc(OCCCNc2ccccn2)cc1`, the survivor count is reported as 0 of 3 under setting [5] and 0 of 3 under setting [6].

`Cc1ccc(N2CCN(CCCCCC(=O)O)CC2)cc1Cl`: under setting [6], the T/C is 129 % of control and the survivor count is reported as 3 of 6.

In the case of `O=C(NNC(=O)c1cccc(C(=O)NNC(=O)c2ccc(Cl)c(Cl)c2)n1)c1ccc(Cl)c(Cl)c1`, the survivor count runs as follows: (T/C endpoint: median survival time, dose: 333.33 mg/kg/injection, schedule: Q01DX005 (ip), vehicle: Klucel (hydroxypropylcellulose) (HPC)) 2 of 6; (T/C endpoint: median survival time, dose: 555.56 mg/kg/injection, schedule: Q01DX005 (ip), vehicle: Klucel (hydroxypropylcellulose) (HPC)) 6 of 6.

For the compound `Cc1cc(N2CCN(C)CC2)n2nc(-c3ccc(Cl)cc3)nc2n1`, the survivor count reads like this: under setting [1], 1 of 6; (T/C endpoint: mean survival time, dose: 400.0 mg/kg/injection, schedule: Q01DX009 (ip), vehicle: Klucel (hydroxypropylcellulose) (HPC)) 0 of 6; (T/C endpoint: mean survival time, dose: 600.0 mg/kg/injection, schedule: Q01DX001 (ip), vehicle: Klucel (hydroxypropylcellulose) (HPC)) 0 of 6.

Regarding `CN(C)CCCNC(CC#N)CCC#N` (configuration not stated), the survivor count (T/C endpoint: mean survival time, dose: 400.0 mg/kg/injection, schedule: Q04DX003 (ip), vehicle: saline) is listed as 0 of 6.

In the case of `O=C(O)c1[nH]c(=O)[nH]c(=O)c1F.[Ga]`, the T/C is 132 % of control (T/C endpoint: mean survival time, dose: 80.0 mg/kg/injection, schedule: Q01DX001 (ip), vehicle: saline with Tween-80) and 131 % of control (T/C endpoint: mean survival time, dose: 118.0 mg/kg/injection, schedule: Q01DX001 (ip), vehicle: saline with Tween-80). Further, the survivor count (T/C endpoint: mean survival time, dose: 266.0 mg/kg/injection, schedule: Q01DX001 (ip), vehicle: saline with Tween-80) is given as 0 of 6.

With `CC1=C(C)C(C(=O)O)C1C(=O)O` (configuration not stated), the survivor count under setting [3] was 3 of 6.

On to `COc1cc(OC)c(/C=C/c2cnc3ccccc3n2)c(OC)c1`, for which the survivor count by setting is: under setting [7], 6 of 6; under setting [5], 6 of 6; under setting [6], 6 of 6.

On to `CN(C)NC(=O)/C=C\C(=O)O`, for which the survivor count (T/C endpoint: mean survival time, dose: 400.0 mg/kg/injection, schedule: Q01DX009 (ip), vehicle: saline) was 3 of 6.

Turning to `Cc1ccc(NC(=O)c2ccccc2)c(C)c1`, the survivor count under setting [4] was 3 of 6.

As to `C[n+]1ccc2ccccc2c1`, the survivor count (T/C endpoint: mean survival time, dose: 300.0 mg/kg/injection, schedule: Q01DX001 (ip), vehicle: saline) is recorded as 1 of 6.

`Nc1ccc(-c2nc(-c3ccccc3)c(-c3ccccc3)[nH]2)cc1`: the survivor count was 3 of 3 under setting [2] and 3 of 3 (T/C endpoint: mean survival time, dose: 200.0 mg/kg/injection, schedule: Q01DX001 (ip), vehicle: saline with Tween-80).

On to `CC(NC(=S)Nc1ccccc1)c1ccccc1` (configuration not stated), for which the survivor count reads like this: (T/C endpoint: mean survival time, dose: 100.0 mg/kg/injection, schedule: Q04DX002 (ip), vehicle: Klucel (hydroxypropylcellulose) (HPC)) 2 of 3; (T/C endpoint: mean survival time, dose: 200.0 mg/kg/injection, schedule: Q04DX002 (ip), vehicle: Klucel (hydroxypropylcellulose) (HPC)) 1 of 3; (T/C endpoint: mean survival time, dose: 400.0 mg/kg/injection, schedule: Q04DX002 (ip), vehicle: Klucel (hydroxypropylcellulose) (HPC)) 0 of 3.

For the compound `CC([NH-])CC(C)[NH-].[Br][Pt+2][Br]` (configuration not stated), the T/C was 134 (2×) and 142 % of control (T/C endpoint: mean survival time, dose: 6.25 mg/kg/injection, schedule: Q04DX003 (ip), vehicle: saline with Tween-80); 134 and 136 % of control (T/C endpoint: mean survival time, dose: 12.5 mg/kg/injection, schedule: Q04DX003 (ip), vehicle: saline with Tween-80).

With `CC[N+](CC)(CCOc1ccc(C(C)(C)CC(C)(C)C)cc1)Cc1ccccc1`, the survivor count is recorded as 5 of 6 (T/C endpoint: mean survival time, dose: 10.0 mg/kg/injection, schedule: Q04DX003 (ip), vehicle: saline); 2 of 6 (T/C endpoint: mean survival time, dose: 20.0 mg/kg/injection, schedule: Q04DX003 (ip), vehicle: saline); 0 of 6 under setting [7]; 0 of 6 under setting [5]; 0 of 6 under setting [6].

In the case of `O=C(Nc1ccc(C2=NCCN2)cc1)c1ccc(C(=O)Nc2ccc(C3=NCCN3)cc2)c([N+](=O)[O-])c1`, the T/C was 127 % of control (T/C endpoint: mean survival time, dose: 5.0 mg/kg/injection, schedule: Q01DX009 (ip), vehicle: saline) and 125 % of control [5 of 6 alive] (T/C endpoint: mean survival time, dose: 20.0 mg/kg/injection, schedule: Q03DX003 (ip), vehicle: saline). Also, the survivor count was 2 of 6 (T/C endpoint: mean survival time, dose: 32.0 mg/kg/injection, schedule: Q01DX009 (ip), vehicle: saline) and 0 of 6 (T/C endpoint: mean survival time, dose: 64.0 mg/kg/injection, schedule: Q01DX009 (ip), vehicle: saline).

With `NCCCNCCSP(=O)(O)O`, the survivor count under setting [4] is listed as 6 of 6.

For `NC(=O)c1ncn2c(=O)n(CCCl)nnc12`, the T/C by setting is: (T/C endpoint: median survival time, dose: 1.5 mg/kg/injection, schedule: Q01DX009 (ip), vehicle: saline) 132 % of control; (T/C endpoint: median survival time, dose: 3.12 mg/kg/injection, schedule: Q01DX009 (ip), vehicle: saline) 147 and 147 % of control [5 of 6 alive]; (T/C endpoint: median survival time, dose: 3.12 mg/kg/injection, schedule: Q01DX009 (ip), vehicle: suspension in saline) 131 % of control; (T/C endpoint: median survival time, dose: 25.0 mg/kg/injection, schedule: Q01DX009 (ip), vehicle: saline) 158 (2×), 352, 365 % of control; (T/C endpoint: median survival time, dose: 50.0 mg/kg/injection, schedule: Q01DX009 (ip), vehicle: saline) 101, 126, 132, 137 % of control.

On to `COc1cc2c3cc1Oc1c(OC)c(OC)cc4c1[C@@H](Cc1ccc(O)c(c1)Oc1ccc(cc1)C[C@@H]3N(C)CC2)N(C)CC4`, for which, where the note is “T/C endpoint: mean survival time, dose: 300.0 mg/kg/injection, schedule: Q01DX001 (ip), vehicle: other”, the survivor count was 1 of 6.

As to `O=C1C=C2C(=CCOC2O)O1` (configuration not stated), the survivor count is 6 of 6 (T/C endpoint: mean survival time, dose: 0.25 mg/kg/injection, schedule: Q01DX009 (ip), vehicle: Klucel (hydroxypropylcellulose) (HPC)); 0 of 6 and 1 of 6 (T/C endpoint: mean survival time, dose: 8.0 mg/kg/injection, schedule: Q01DX009 (ip), vehicle: Klucel (hydroxypropylcellulose) (HPC)); 0 of 6 (T/C endpoint: mean survival time, dose: 12.0 mg/kg/injection, schedule: Q01DX009 (ip), vehicle: Klucel (hydroxypropylcellulose) (HPC)).

Regarding `c1ccc2sc(SSN3CC4CCC(CC4)C3)nc2c1`, the survivor count under setting [4] is listed as 2 of 6.
